Publication doi:10.1101/772400
Results are given in words; binding and its absence hold for the method and conditions named. For some of these results: In cells and extracts the contact can be indirect. Some binding calls cover weakened binding; strength is not graded here. For some of these results: Tags and fused reporters may be left off the sequences shown.

Columns and labels:
[1] = biological target: T1, C-Ven-RBR (RETINOBLASTOMA RELATED fused to C-Venus for BiFC) (Arabidopsis (accession Col-0)) (UniProt Q9LKZ3); experiment: split reporter
T1 sequence: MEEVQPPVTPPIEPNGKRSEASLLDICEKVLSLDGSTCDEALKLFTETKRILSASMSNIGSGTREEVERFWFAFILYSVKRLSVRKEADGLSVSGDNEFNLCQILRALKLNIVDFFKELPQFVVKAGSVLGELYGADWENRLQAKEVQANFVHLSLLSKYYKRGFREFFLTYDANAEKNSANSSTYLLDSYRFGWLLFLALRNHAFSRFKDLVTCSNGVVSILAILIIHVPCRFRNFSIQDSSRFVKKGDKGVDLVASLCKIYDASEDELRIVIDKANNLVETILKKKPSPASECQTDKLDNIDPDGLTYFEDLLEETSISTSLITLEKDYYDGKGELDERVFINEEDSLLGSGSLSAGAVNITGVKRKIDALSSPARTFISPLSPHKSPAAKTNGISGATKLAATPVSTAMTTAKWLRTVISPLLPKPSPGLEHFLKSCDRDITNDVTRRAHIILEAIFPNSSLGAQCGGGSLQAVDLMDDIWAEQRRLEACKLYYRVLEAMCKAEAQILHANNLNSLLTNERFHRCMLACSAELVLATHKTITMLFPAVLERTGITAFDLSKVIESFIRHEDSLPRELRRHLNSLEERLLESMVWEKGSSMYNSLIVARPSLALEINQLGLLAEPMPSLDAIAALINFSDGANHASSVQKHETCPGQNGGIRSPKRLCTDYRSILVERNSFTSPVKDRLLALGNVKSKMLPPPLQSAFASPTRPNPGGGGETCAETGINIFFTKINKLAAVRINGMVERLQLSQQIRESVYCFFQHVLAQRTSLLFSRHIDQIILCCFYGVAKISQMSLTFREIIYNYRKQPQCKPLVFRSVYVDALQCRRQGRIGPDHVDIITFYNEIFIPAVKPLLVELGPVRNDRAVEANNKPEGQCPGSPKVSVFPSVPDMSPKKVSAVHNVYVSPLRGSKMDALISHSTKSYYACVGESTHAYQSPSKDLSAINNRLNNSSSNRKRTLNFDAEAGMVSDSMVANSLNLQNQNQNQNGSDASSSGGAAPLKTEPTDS

[2] = biological target: T2, RETINOBLASTOMA RELATED (RBR), LexA two-hybrid bait (Arabidopsis (accession Col-0)) (UniProt Q9LKZ3); experiment: two-hybrid
T2 sequence: T1 sequence

B1: N-Ven-LEC1 (BiFC fusion) (protein, UniProt Q9SFD8 1-238)
chain: MERGAPFSHYQLPKSISELNLDQHSNNPTPMTSSVVVAGAGDKNNGIVVQQQPPCVAREQDQYMPIANVIRIMRKTLPSHAKISDDAKETIQECVSEYISFVTGEANERCQREQRKTITAEDILWAMSKLGFDNYVDPLTVFINRYREIETDRGSALRGEPPSLRQTYGGNGIGFHGPSHGLPPPGPYGYGMLDQSMVMGGGRYYQNGSSGQDESSVGGGSSSSINGMPAFDHYGQYK
[1]
  binding: binds weakly

B2: RKD1 (RWP-RK domain-containing 1), two-hybrid prey (protein, UniProt Q9M9U9 1-269)
chain: MKSFCKLEYDQVFGKENNSFSFLNHSSLYSHQSELANPFFELEDEMLPSATSSNCFTSASSFLALPDLEPISIVSHEADILSVYGSASWTAEETMFVSDFAKKSETTTTKKRRCREECFSSCSVSKTLSKETISLYFYMPITQAARELNIGLTLLKKRCRELGIKRWPHRKLMSLQKLISNVKELEKMEGEENEDKLRNALEKLEKEKKTIEKLPDLKFEDKTKRLRQACFKANHKRKRRSGMSTPITSSSSSASASSSSYSSVSGFER
[2]
  binding: binds

B3: RKD2 (RWP-RK domain-containing 2), two-hybrid prey (protein, UniProt Q9CA66 1-298)
chain: MADHTTKEQKSFSFLAHSPSFDHSSLSYPLFDWEEDLLALQENSGSQAFPFTTTSLPLPDLEPLSEDVLNSYSSASWNETEQNRGDGASSEKKRENGTVKETTKKRKINERHREHSVRIISDITTYTTSSAPTTLSKETVSRYFYMPITQAAIALNVGLTLLKRRCRELGIRRWPHRKLMSLNTLISNVKELQKMEGEENAEKLQDALEMLEKEKRTIEDLPDLEFKDKTKRLRQACFKANHKRKKKRSLKSDQSQVPSCSSSGSVPSDESVDEAGMESDEEMKYLLCGFSSEFTSGL
[2]
  binding: binds

B4: LEAFY COTYLEDON1 (LEC1), two-hybrid prey (protein, UniProt Q9SFD8 1-238)
chain: B1 chain
[2]
  binding: binds
